The structures given here were assigned with low confidence; some may be wrong.
Target: STING (Homo sapiens, UniProt Q86WV6, G230A/H232R/R293Q/R71H)
Test: STING reporter assay (luciferase) in THP1-Dual KO-IFNAR2 cells stimulated with 2′3′cGAMP
Conditions: read-out: Pharmaron, THP1_IFNAR2 STING 24 h Luci Normalized: GeoMean EC50, 2′3′cGAMP 15 μM final, luciferase reporter activity
Method: STING pathway activation by the compounds described herein was measured using TTIP1-Dual™ cells (KO-IFNAR2).
TTIP1-Dual™ KO-IFNAR2 Cells (obtained from invivogen) were maintained in RPMI, 10% FCS, 5 ml P/S, 2 mM L-glut, 10 mM Hepes, and 1 mM sodium pyruvate. Compounds were spotted in empty 384 well tissue culture plates (Greiner 781182) by Echo for a final concentration of 0.0017-100 μM. Cells were plated into the TC plates at 40 μL per well, 2×10E6 cells/mL. For activation with STING ligand, 2′3′cGAMP (MW 718.38, obtained from Invivogen), was prepared in Optimem media.
The following solutions were prepared for each 1×384 plate: • Solution A: 2 mL Optimem with one of the following stimuli: • […] • Solution B: 2 mL Optimem with […] Lipofectamine 2000→Incubate 5 min at RT
2 mL of solution A and 2 ml Solution B was mixed and incubated for 20 min at room temperature (RT). […] Luciferase reporter activity was then measured. EC50 values were calculated by using standard methods known in the art.
Luciferase reporter assay: 10 μL of supernatant from the assay was transferred to white 384-plate with flat bottom and squared wells. […] Luminescence was measured on a Platereader (e.g., Spectramax I3X (Molecular Devices GF3637001)).
Luciferase reporter activity was then measured. EC50 values were calculated by using standard methods known in the art.

Sequences of proteins named here, by UniProt entry; tags and fusion partners are left off.
UniProt Q86WV6, whole entry R71H/G230A/H232R/R293Q: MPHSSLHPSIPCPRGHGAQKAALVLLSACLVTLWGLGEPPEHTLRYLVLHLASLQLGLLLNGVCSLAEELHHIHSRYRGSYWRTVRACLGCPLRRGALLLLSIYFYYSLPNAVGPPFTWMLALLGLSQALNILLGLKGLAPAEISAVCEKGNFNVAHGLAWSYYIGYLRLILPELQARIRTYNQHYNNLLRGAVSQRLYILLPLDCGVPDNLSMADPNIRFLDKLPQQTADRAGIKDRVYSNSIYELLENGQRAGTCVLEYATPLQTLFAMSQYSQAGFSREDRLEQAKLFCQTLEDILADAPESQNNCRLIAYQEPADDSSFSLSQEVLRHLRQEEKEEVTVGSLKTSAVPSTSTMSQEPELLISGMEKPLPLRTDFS

`O=C(Nc1c[nH]c2ccc(OCCc3ccc(C(F)(F)F)cc3)cc12)C1C2COCC21` (stereo not shown) gave an EC50 of 40 to 200 nM.

From patent publication US20230250060A1 (IFM Due, Inc., priority 2022, published 2023)
